Test results taken from article PMC3733081 (Journal of chemical information and modeling, 2013).

Experiment: n-hexadecane/water

COC(=O)C1=C(C)NC(C)=C(C(=O)OC)C1c1ccccc1[N+](=O)[O-] [nifedipine, reference compound]
l1 (rate parameter of transport from water to C16): (7.229±2.679)×10^−1 cm/h | l2 (rate parameter of transport from C16 to water): (1.498±0.418)×10^−1 cm/h
